This note sets out measurements from US5981488 (dated 1999).

HELM strings list residues between dots; [ac] is acetyl, [am] amide, other brackets name non-standard units.

Series [1] is described as follows: general procedure: Boc solid-phase peptide synthesis; MBHA resin; symmetric anhydrides; preformed hydroxy benzotriazole esters for Asp, Gln, Arg. The following applies: whole synthesis, scale 0.5 mmol.
Series [2] can be described thus: general procedure: Boc solid-phase peptide synthesis; MBHA resin (0.77 mmol/g); PAM resin for C-terminal acids; symmetric anhydrides; preformed hydroxy benzotriazole esters for Asp, Gln, Arg. The following applies: whole synthesis.

“PEPTIDE1{H.M.E.G.T.F.T.S.D.V.S.S.Y.L.E.G.Q.A.A.K.E.F.I.A.W.L.V.K.G.R.[am]}$$$$V2.0” came in with an isolated mass in series [1] of 125 mg. The “final HPLC purity” value in series [2] (analytical HPLC at pH 2.3, scale of the general procedure 0.5 mmol) is reported as 60%. Besides, the isolated yield in series [2] (scale of the general procedure 0.5 mmol) is 10%.
